# Reference: the supplement of paper PMC12009310
# Counter-ions that a name gives are not always drawn. ± gives the standard deviation of the averaged measurements. This is one part of the list. Plates or batches differ in their baseline, so values are only roughly comparable.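 The cells are a mouse kidney inner medullary collecting duct line, silenced either for the ciliary gene Rpgrip1l or with a non-targeting control siRNA.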
# Tested on: mIMCD3
# Assay: robust z score of cilia incidence (% cells with single cilium) vs plate controls; higher = more ciliated cells (rescue of cilia loss)
# Conditions: 10 µM; 48 h; siRNA: siRpgrip1l
row,SMILES,robust z score of cilia incidence
1,O=C(O)C1=CCCN(CCOC(c2ccc(C(F)(F)F)cc2)c2ccc(C(F)(F)F)cc2)C1 [CI 966 hydrochloride],-5.89 ± 2.4
2,CN(C)CCN(C)CCc1ccc(Cl)c(Cl)c1 [BD 1047 dihydrobromide],-28.8 ± 4.5
3,O=C1NC(=O)c2c1c1c3ccccc3[nH]c1c1[nH]c3ccccc3c21 [Arcyriaflavin A],-13.9 ± 7.2
4,CNCCc1cnc[nH]1 [N α-Methylhistamine dihydrochloride],-7.84 ± 4.9
5,COc1cc2c(cc1O)C(CCc1ccc(Cl)cc1)N(C)CC2 (stereo not drawn),-48.9 ± 18
6,CN1[C@@H]2CC[C@H]1CC(OC(=O)N1Cc3ccccc3NC1=O)C2 (stereo partly drawn) [DAU 5884 hydrochloride],-23.9 ± 13
7,N#Cc1ccc(N2CCN(C(=O)COc3ccc4[nH]cc(CCN)c4c3)CC2)cc1 [Donitriptan hydrochloride],-8.56 ± 3.5
8,O=C1Nc2cc(Cl)c(Cl)cc2N2CCNCC12 (stereo not drawn),-16.5 ± 12
9,NC(=S)N/N=C/c1coc2ccccc2c1=O.[Cl][Cu][Cl],-4.24 ± 1.6
10,COc1ccc(CCN2CCC(Nc3nc4ccccc4n3Cc3ccc(F)cc3)CC2)cc1 [Astemizole],-25.7 ± 7.9
11,CCN1C[C@]2(COC(=O)c3ccccc3N3C(=O)C[C@H](C)C3=O)CC[C@H](OC)[C@@]34[C@@H]5C[C@H]6[C@H](OC)[C@@H]5[C@](O)(C[C@@H]6OC)[C@](O)([C@@H](OC)[C@H]23)[C@@H]14 [Methyllycaconitine citrate],-16.2 ± 0.88
12,CC(C)C[C@@H](N)C1(c2ccc(Cl)cc2)CCC1,-12.7 ± 9.3
13,Oc1cc2c(cc1O)[C@H]1c3ccccc3CN[C@@H]1CC2 (racemic) [Dihydrexidine hydrochloride],-20.3 ± 4.3

# 2 records drawn at random from those above:
row,SMILES,robust z score of cilia incidence
5,COc1cc2c(cc1O)C(CCc1ccc(Cl)cc1)N(C)CC2 (stereo not drawn),-48.9 ± 18
13,Oc1cc2c(cc1O)[C@H]1c3ccccc3CN[C@@H]1CC2 (racemic) [Dihydrexidine hydrochloride],-20.3 ± 4.3
